{
  "source": "patent US7816310B2",
  "about": "“Increased moisturization efficacy using hydroxyalkylurea and ammonium lactate” (Akzo Nobel N.V., priority 2003, dated 2010)",
  "assay": "Hair moisture uptake by Dynamic Vapor Sorption (DVS)",
  "settings": "37° C., 50% active solution",
  "data": [
    {"smiles": "OCC(O)CO", "note": "[Glycerin, glycerin]", "values": [
      {"measurement": "Percent moisture uptake by DVS analysis", "setting": "4 Hour @ 85% RH, blank (water) 13.58%", "value": 22.10, "unit": "%"},
      {"measurement": "Percent moisture uptake by DVS analysis", "setting": "20 Hour @ 85% RH, blank (water) 14.53%", "value": 44.58, "unit": "%"}
    ]}
  ]
}
